Values of other authors, collected in patent US20220295833A1, “SWEETENER BLENDS WITH IMPROVED TASTE” (The Coca-Cola Company, priority 2019, published 2022).
Some entries share one result that the patent states for a list of compounds. For at least one compound, name, drawing or mass did not settle the structure.

Molecule | aqueous solubility
C=C1C[C@@]23CC[C@H]4[C@@](C)(CCC[C@@]4(C)C(=O)O[C@@H]4O[C@H](CO)[C@@H](O)[C@H](O[C@@H]5O[C@H](CO)[C@@H](O)[C@H](O)[C@H]5O)[C@H]4O[C@@H]4O[C@H](CO)[C@@H](O)[C@H](O)[C@H]4O)[C@@H]2CC[C@]1(O[C@@H]1O[C@H](CO)[C@@H](O)[C@H](O[C@@H]2O[C@H](CO)[C@@H](O)[C@H](O)[C@H]2O)[C@H]1O[C@@H]1O[C@H](CO)[C@@H](O)[C@H](O)[C@H]1O)C3 [Rebaudioside M] | 0.05-0.1 wt %
Rebaudioside B | 0.05-0.1 wt %
